In patent US20240317732A1, “A NEW MOLECULAR SCAFFOLD FOR TARGETING HRPN13” (THE UNITED STATES OF AMERICA AS REPRESENTED BY THE …, priority 2021, published 2024):

Test: LC-MS reactivity with reduced L-glutathione
Conditions: 40 μM compound, 2 mM reduced L-glutathione, 2 hours, 4° C.

Cl.N[C@@H](Cc1ccccc1)C(=O)N1C/C(=C/c2ccc(Cl)c(Cl)c2)C(=O)/C(=C\c2ccc(Cl)c(Cl)c2)C1 [RA190]
abundance of glutathione product with one molecule ligated: 14%
abundance of glutathione product with two molecules ligated: 30%
